According to PubChem BioAssay AID210 (DTP/NCI, 2004):
The list does not hold the whole screen: its compounds were picked by chemical class. Other doses and runs of a compound may be missing. T/C gives the treated animals as a percentage of the vehicle group. Where survival is the endpoint, this PubChem deposit counts one and a half times the control or more as active, and values a quarter to a half above the control carry no call in these data; other NCI protocols may use other cut-offs. Schedule codes are those of the source, read here as Q, the interval in days (D) or hours (H), X, the number of doses. Some entries show no survivor count and are marked so; the dose need not have been tolerated. Some entries were tested several times; the results are listed from low to high.

Tested on: CD2F1 mice, ip Colon 26 adenocarcinoma, median survival T/C
Assay: NCI In Vivo Anticancer Drug Screen. Data for tumor model Colon 26 Adenocarcinoma (intraperitoneal) in CD2F1 (CDF1) mice
Details: T/C endpoint: median survival time, higher T/C = longer survival
Experimental: The antitumor activity of compounds was measured in mice bearing transplantable tumors. Survival or tumor size were measured and the results are expressed as the measurement made in the treated group (T) divided by the measurement made in the vehicle treated control group (C). The tumor model used in this assay is Colon 26 Adenocarcinoma (intraperitoneal) in CD2F1 (CDF1) mice

SMILES	T/C (dose: 6.25 mg/kg/injection, schedule: Q04DX003 (ip), vehicle: saline)	T/C (dose: 12.5 mg/kg/injection, schedule: Q04DX003 (ip), vehicle: saline)	T/C (dose: 25.0 mg/kg/injection, schedule: Q04DX003 (ip), vehicle: saline)	T/C (dose: 0.39 mg/kg/injection, schedule: Q04DX002 (ip), vehicle: Klucel (hydroxypropylcellulose) (HPC))	T/C (dose: 0.78 mg/kg/injection, schedule: Q04DX002 (ip), vehicle: Klucel (hydroxypropylcellulose) (HPC), evaluated on day 60)	T/C (dose: 0.78 mg/kg/injection, schedule: Q04DX002 (ip), vehicle: Klucel (hydroxypropylcellulose) (HPC), evaluation day not shown)	T/C (dose: 1.56 mg/kg/injection, schedule: Q04DX002 (ip), vehicle: Klucel (hydroxypropylcellulose) (HPC), evaluated on day 60)	T/C (dose: 1.56 mg/kg/injection, schedule: Q04DX002 (ip), vehicle: Klucel (hydroxypropylcellulose) (HPC), evaluation day not shown)	T/C (dose: 3.13 mg/kg/injection, schedule: Q04DX002 (ip), vehicle: Klucel (hydroxypropylcellulose) (HPC), evaluated on day 60)	T/C (dose: 3.13 mg/kg/injection, schedule: Q04DX002 (ip), vehicle: Klucel (hydroxypropylcellulose) (HPC), evaluation day not shown)	T/C (dose: 6.25 mg/kg/injection, schedule: Q04DX002 (ip), vehicle: Klucel (hydroxypropylcellulose) (HPC))
C[N+](CCCl)(CCCl)Cc1ccc([N+](=O)[O-])cc1	135 % of control [survivor count not shown]	158 % of control [survivor count not shown]	162 % of control [survivor count not shown]								
CC1=CC(=O)C(N(CCCl)CCCl)=CC1=O				152 % of control	188 % of control	128 % of control [survivor count not shown]	192 % of control	183 % of control [survivor count not shown]	188 % of control	199 % of control [survivor count not shown]	235 [survivor count not shown] and 239 % of control [survivor count not shown]
